Where “and” joins values, the source holds several entries; their conditions need not be identical. Equal values may be shown once. Some of the results follow. Shown are side measurements of this screen, not its main read-out; they come without a call. Most of these compounds were active or inconclusive in the main read-out, so they are no random draw. The note in brackets gives the kind of curve behind each potency; many fits are weak.
Assay: qHTS Assay to Find Inhibitors of Chronic Active B-Cell Receptor Signaling
Details: ABC-DLBCL IkBa-CBG/CBR reporter, luminescence ratio (green luciferase fused to IkBa over red control in TMD8 lymphoma cells), 4 h
Outline: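 Doxycycline induced both beetle luciferases in TMD8 lymphoma cells; IKK-driven degradation limits the IkappaBalpha-fused green signal, while red luminescence normalises for cell number and nonspecific effects. Compounds tested up to 46 uM, 4 hrs.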

[1] = measured here: CBR red luminescence, cell number

Row | Structure (SMILES) | AC50 [1] | AC50 (measured here: IkBa-CBG green luminescence)
1 | COc1cc(C2OC(=O)c3c2ccc(OC)c3OC)ccc1O (stereo not drawn) | 2.31 µM [rising, single point] | 
2 | O=[N+]([O-])c1cccc(-c2csc(Nc3ccccc3)n2)c1 | 35.5 µM [falling, single point] | 
3 | COc1ccc(CC(=O)N/N=C/c2ccc(Cl)s2)cc1OC | 12.6 µM [rising, single point] | 
4 | CC1CCCN(CCCNC(=O)c2ccc3c(c2)N(Cc2cccc(Cl)c2)C(=O)c2ccccc2S3(=O)=O)C1 (stereo not drawn) | 35.5 µM [falling, single point] | 
5 | O=[N+]([O-])c1nn(-c2ccc3c(c2)OCCO3)n(O)c1=NCCC1=CCCCC1 | 35.5 µM [rising, partial curve, poor fit] | 
6 | COc1ccc(/C=C/c2ccc3c(Br)ccc(O)c3n2)cc1 | 8.91 µM [rising, partial curve, poor fit] | 
7 | CCC(C)NC(=O)[C@H]1N2C(=O)c3c(ccc(OC)c3OC)C2SC1(C)C (stereo partly drawn) | 0.891 µM [falling, full curve, poor fit] | 
8 | O=C(CCS(=O)(=O)c1ccc(Cl)cc1)Nc1nc(-c2ccncc2)cs1 | 0.562 µM [falling, full curve, poor fit] | 
9 | CC(C)NC(=O)CC(c1ccccc1)c1cc(Br)ccc1O (stereo not drawn) | 29.1 µM [falling, single point] | 
10 | O=C(O)CCn1nc(-c2ccc(F)cc2)cc(Cc2ccccc2)c1=O | 35.5 µM [falling, partial curve, poor fit] | 
11 | CN1CCC(N(C)C(=O)c2ccc(Cl)c(S(=O)(=O)N3CCc4ccccc43)c2)CC1 | 29.1 µM [falling, partial curve, poor fit] | 
12 | Cc1ccc(C)c(CSc2nc3ccncc3n2CC(=O)Nc2ccc(C)c(C)c2)c1 | 29.1 µM [falling, single point] | 
13 | COc1cc(/C=C/c2nc(N)nc(-c3ccccc3O)n2)cc(OC)c1OC | 2.59 µM [falling, full curve, poor fit] | 
14 | COC(=O)C1=C(C)N(Cc2ccccc2)C(=NCCc2c[nH]c3ccccc23)N[C@H]1c1cccc(F)c1 | 29.1 µM [falling, single point] | 
15 | CCN(CCCNC(=O)CC(C(=O)N1CCc2ccccc21)n1ccnc1)c1cccc(C)c1 (stereo not drawn) | 22.4 µM [falling, partial curve, poor fit] | 
16 | CCCCNC(=O)C1CCC(CNc2c(N3CCC(C)CC3)c(=O)c2=O)CC1 (stereo not drawn) | 10 µM [rising, partial curve] | 
17 | C/C(=N\NC(=O)Nc1ccccc1)c1ccc2ccccc2c1 | 4.11 µM [rising, full curve, poor fit] | 
18 | Cc1ccccc1NC(=O)c1cn(-c2ccccc2)nc1-c1ccccc1 | 18.4 µM [falling, partial curve, poor fit] | 
19 | O=C(COc1ccc(NC(=O)c2ccccc2[N+](=O)[O-])cc1)c1ccc(F)cc1 | 25.1 µM [falling, single point] | 
20 | Cc1ccccc1-c1ccnc2[nH]n(-c3ccccc3)c(=O)c12 | 1.41 µM [falling, full curve, poor fit] | 
21 | CC(NC(=O)CSc1nnc(-c2cccc(S(=O)(=O)N3CCCCC3)c2)o1)C12CC3CC(CC(C3)C1)C2 (stereo not drawn) | 0.731 µM [rising, partial curve, poor fit] | 

Row | Structure (SMILES) | AC50 [1] | AC50 (measured here: IkBa-CBG green luminescence)
22 | C/C(=N\NC(=O)c1nc2ccccn2c1C)c1cc2ccccc2o1 | 5.01 µM [falling, partial curve] | 
23 | O=C(/C=C/c1ccc(NC(=O)c2ccccc2-c2ccccc2C(=O)O)cc1)c1ccccc1 | 35.5 µM [falling, single point] | 
24 | Nc1nonc1C(=Nc1ccc(Br)cc1)NO | 1.03 µM [falling, full curve, poor fit] | 
25 | CCN(CCS(=O)(=O)c1ccc(Br)cc1)Cc1nc2ccccc2c(=O)[nH]1 | 5.17 µM [falling, single point] | 
26 | O=C(CNC(=O)Cc1ccccc1)NCC(=O)OCc1ccc(C(=O)c2ccccc2)cc1 | 0.0891 µM [rising, full curve, poor fit] | 
27 | CC(C)(C)C1CCc2onc(C(=O)NCc3ccc(F)cc3)c2C1 (stereo not drawn) | 14.1 µM [falling, single point] | 
28 | N=c1n(CCCOc2ccccc2Cl)c2ccccc2n1CC(N)=O | 25.1 µM [falling, single point] | 
29 | CC(=O)Nc1ccc(S(=O)(=O)N2CCN=C2SCc2ccccc2C)cc1 | 10 µM [rising, single point] | 
30 | O=C(CCC(=O)c1cccs1)Nc1ccccc1F | 11.2 µM [falling, partial curve] | 
31 | CC(C)c1ccc(NC(=O)CSC2=Nc3ccccc3C3=NC(CC(=O)NCc4cccs4)C(=O)N23)cc1 (stereo not drawn) | 7.08 µM [falling, partial curve] | 
32 | Nc1nc(NCc2c(F)cccc2Cl)nn1-c1ccccc1 | 23.1 µM [falling, single point] | 
33 | COc1ccccc1C(CCN(Cc1ccccc1)C(C)=O)c1ccco1 (stereo not drawn) | 17.8 µM [falling, partial curve, poor fit] | 
34 | CCc1ccc(NC(=O)C(C)Oc2nnc(-c3cccs3)c(-c3cccs3)n2)cc1 (stereo not drawn) | 29.1 µM [rising, single point] | 
35 | CCOc1ccc(NS(=O)(=O)c2ccc3[nH]cc(C(=O)N(CC)CC)c(=O)c3c2)cc1 | 12.6 µM [falling, single point] | 
36 | CC/C(=N\Nc1nncc2ccccc12)c1ccc(F)cc1 | 35.5 µM [falling, single point] | 
37 | N=C1C(c2nc(-c3ccc(F)cc3)cs2)=C(O)CN1Cc1ccc(Cl)cc1 | 29.1 µM [rising, single point] | 
38 | CC(O)C(O)C(O)C(O)/C=N/NC(=O)c1ccccc1 (stereo not drawn) | 10.3 µM [falling, partial curve, poor fit] | 
39 | Fc1c(F)c(C(F)(F)F)c(F)c(F)c1N/N=C\c1cccs1 | 2.91 µM [rising, partial curve, poor fit] | 
40 | Cc1cccc(OCC(=O)O/N=C(\N)c2ccc(Cl)cc2)c1 | 0.447 µM [rising, full curve, poor fit] | 
41 | CCCCNC(=O)Nc1ccccc1CC | 0.112 µM [falling, full curve, poor fit] | 
42 | CN1CCC(=C2c3ccccc3CCc3sccc32)CC1 | 35.5 µM [falling, single point] and 29.1 µM [falling, single point] | 

Row | Structure (SMILES) | AC50 [1] | AC50 (measured here: IkBa-CBG green luminescence)
43 | COc1ccc(NC(=O)CSCC(=O)N(C)Cc2ccc(Cl)c(Cl)c2)cc1 | 9.2 µM [falling, partial curve, poor fit] | 
44 | Cc1cnc(NC(=O)c2cc3c(s2)CCCC3)s1 | 8.2 µM [falling, partial curve, poor fit] | 
45 | COc1ccc(/C=N/NC(=O)c2[nH]ncc2Br)c(OC)c1 | 11.6 µM [falling, partial curve, poor fit] | 
46 | COc1ccc(CN2CCc3c([nH]c4ccccc34)C2)cc1Br | 12.6 µM [falling, single point] | 
47 | CC(NC(=O)c1ccco1)C(=O)OCc1cccc(C(F)(F)F)c1 (stereo not drawn) | 0.116 µM [falling, partial curve, poor fit] | 
48 | Fc1ccc(-c2cnc(-c3cccs3)o2)cc1 | 1.26 µM [rising, full curve] | 
49 | COc1cc(/C=N/n2nnnc2N)ccc1OCC#N | 35.5 µM [rising, partial curve, poor fit] | 
50 | CCOC(=O)c1c(NC(=O)CCC(=O)O)sc2c1CCCCC2 | 16.4 µM [falling, single point] | 
51 | CC(CNC(=O)CCC(=O)N1CCOc2ccc(Cl)cc21)c1ccccc1 (stereo not drawn) | 14.1 µM [falling, partial curve, poor fit] | 
52 | CC[C@]12c3[nH]c4cc(CCC(=O)N(C)C)ccc4c3CCN1C(=O)[C@@H](CC(=O)NCC13CC4CC(CC(C4)C1)C3)C[C@@H]2C(=O)N1CCN(C(=O)C2CC2)CC1 | 29.1 µM [falling, single point] | 
53 | CC(NC(=O)CN(C)Cc1nc2ccccc2c(=O)[nH]1)c1ccccc1 (stereo not drawn) | 0.82 µM [falling, full curve, poor fit] | 
54 | CCCCC1=CC2=CC(=O)C(C)(OC(=O)CC)C(=O)C2=CN1Cc1ccc(OC)cc1 (stereo not drawn) | 17.8 µM [rising, single point] | 
55 | Cc1ccc(-c2nc3ccccc3o2)cc1NC(=S)NC(=O)c1cccs1 | 2.82 µM [rising, full curve, poor fit] | 
56 | COc1ccc(-n2nc3cc(C)c(N)c(Br)c3n2)cc1 | 7.08 µM [rising, partial curve] | 
57 | Cc1cccc(NC(=O)Cc2c(F)cccc2Cl)n1 | 35.5 µM [falling, partial curve, poor fit] | 
58 | COc1ccccc1Oc1ccnc2cc(Cl)ccc12 | 6.31 µM [falling, full curve] | 
59 | CCOC(=O)c1cc(C)n(-c2c(C)n(C)n(-c3ccccc3)c2=O)c1C | 1.03 µM [falling, full curve, poor fit] | 
60 | COc1ccc(S(=O)(=O)N2CCCC2CNC(=O)C(=O)NCCc2ccccc2)cc1 (stereo not drawn) | 29.1 µM [rising, single point] | 
61 | COc1cc(NC(=O)c2cccs2)ccc1NC(=O)c1ccccc1Cl |  | 4.47 µM [rising, full curve, poor fit]
62 | COc1ccc(CCNC(=S)c2ccccc2)cc1OC | 3.98 µM [rising, full curve, poor fit] | 
63 | Brc1ccccc1C1CC(c2ccccc2)=Nc2ccccc2N1 (stereo not drawn) | 23.1 µM [falling, partial curve, poor fit] | 

2 compounds drawn at random from those above:
Row | Structure (SMILES) | AC50 [1] | AC50 (measured here: IkBa-CBG green luminescence)
48 | Fc1ccc(-c2cnc(-c3cccs3)o2)cc1 | 1.26 µM [rising, full curve] | 
58 | COc1ccccc1Oc1ccnc2cc(Cl)ccc12 | 6.31 µM [falling, full curve] | 

Three compounds already listed, ordered by length of the SMILES, ascending:
Row | Structure (SMILES) | AC50 [1] | AC50 (measured here: IkBa-CBG green luminescence)
48 | Fc1ccc(-c2cnc(-c3cccs3)o2)cc1 | 1.26 µM [rising, full curve] | 
47 | CC(NC(=O)c1ccco1)C(=O)OCc1cccc(C(F)(F)F)c1 (stereo not drawn) | 0.116 µM [falling, partial curve, poor fit] | 
52 | CC[C@]12c3[nH]c4cc(CCC(=O)N(C)C)ccc4c3CCN1C(=O)[C@@H](CC(=O)NCC13CC4CC(CC(C4)C1)C3)C[C@@H]2C(=O)N1CCN(C(=O)C2CC2)CC1 | 29.1 µM [falling, single point] | 

Reference: PubChem BioAssay AID493014 (National Center for Advancing Translational Sciences (NCATS), 2011)
